# In PMC7819943, “Rice protein-binding microarrays: a tool to detect cis-acting elements near promoter regions in rice”:
# The chains behind the UniProt entries cited, without tags or fusion partners.
# UniProt Q0JBA9, entry or part of it: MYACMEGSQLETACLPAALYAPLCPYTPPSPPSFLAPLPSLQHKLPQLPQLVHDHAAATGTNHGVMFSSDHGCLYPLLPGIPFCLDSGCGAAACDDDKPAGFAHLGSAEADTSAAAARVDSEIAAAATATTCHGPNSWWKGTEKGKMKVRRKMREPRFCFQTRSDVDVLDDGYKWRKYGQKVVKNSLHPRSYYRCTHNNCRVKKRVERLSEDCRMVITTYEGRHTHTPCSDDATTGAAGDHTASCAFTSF
# The list shows a part of the results.
# Biological target: OsWRKY34 (Oryza sativa, UniProt Q0JBA9 1-250)
# Test: protein-binding microarray (RPBM); PBS, 2% BSA, 51.3 ng/ul salmon testes DNA, 50 uM zinc acetate, 200 nM TF, 25 C, 1 h; high values mean tight binding
# Details: protein: recombinant; tags: N-terminal polyhistidine and DsRed monomer fusion (pET32a); label: CyDye5-dUTP incorporated in the synthesized complementary strand; 3' TTTTT single-stranded linker to array surface; dsDNA, one strand shown
# In short: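 Binding signal is defined as the fluorescence intensity of each feature in arbitrary units, read on an Axon 4000B scanner. Transcription factors with N-terminal polyhistidine and DsRed fusions came from E. coli BL21-CodonPlus and were purified on Ni–NTA. They were incubated at 200 nM for 1 h at 25 °C on a custom Agilent array that had been made double-stranded with Cy5-dUTP, with 50 µM zinc acetate present, and the array was washed.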
row,Sequence,binding signal
1,CATGTCCGCCTACATCCTCGTTCTCGTCATCTTGGTCTGCCGGAGTCACCTAGTGCAG,10900 fluorescence intensity (a.u.)
2,CTCTCAATTAGTCTACGACATTTCGTTCTGTCCTCGATCGCGGAGTCACCTAGTGCAG,8710 fluorescence intensity (a.u.)
3,TTTTCGCTTTGATCCCTTCTATACCCCTCCCGTTAGGTTTCGGAGTCACCTAGTGCAG,9330 fluorescence intensity (a.u.)
4,CGATCGTCCGTTGCTTTGGACCGTTGGTGTGGTAGTAACTCGGAGTCACCTAGTGCAG,8820 fluorescence intensity (a.u.)
5,TACCACATTGTTGTGTACTGACAGCTTCTTGAGTTTGGGGCGGAGTCACCTAGTGCAG,8560 fluorescence intensity (a.u.)
6,AATTCCTACGTTTTTCCTATTCCTGTGTTTTTCCTATCCTCGGAGTCACCTAGTGCAG,8920 fluorescence intensity (a.u.)
7,AAATAGCGGACCATCCTTTCTTCCCTACACCACACACCAACGGAGTCACCTAGTGCAG,8410 fluorescence intensity (a.u.)
8,AATCTAAATATACGTTTCACTGAAAACGACACCCGCACATCGGAGTCACCTAGTGCAG,8120 fluorescence intensity (a.u.)
9,TAATTTTTTTCTATTTGTGTTTATTGTGCCACGTTATCTACGGAGTCACCTAGTGCAG,9830 fluorescence intensity (a.u.)
10,CGTCGCAGAGAGCGAGTGCCAGGTTCAGTTGTCCAATTCACGGAGTCACCTAGTGCAG,8550 fluorescence intensity (a.u.)
11,CTGATTCGTGGGAGGTGGTGGTGTCTGATTCGTGGGAGGCCGGAGTCACCTAGTGCAG,9890 fluorescence intensity (a.u.)
12,ATTATAGACATTTCTACTTCTCTCGTACATATTTATATGCCGGAGTCACCTAGTGCAG,8110 fluorescence intensity (a.u.)
13,GTAAATTATGTATGACGCGGTTGACTTTTTATTAACGTTTCGGAGTCACCTAGTGCAG,16800 fluorescence intensity (a.u.)
14,CTCCATCACCCTCGTCCTCACCGACGGGCCCTACAAGGGGCGGAGTCACCTAGTGCAG,9610 fluorescence intensity (a.u.)
15,AAGTGATTCCCACCTAGCTAGCTTTGCTCCTATATAAAGCCGGAGTCACCTAGTGCAG,8920 fluorescence intensity (a.u.)
16,AACGGAATTAAACTAACCGTTGACTAGCGGCAATGGTATGCGGAGTCACCTAGTGCAG,10100 fluorescence intensity (a.u.)
17,GATACTGTTGGATTATTCTCTCACCATCAATTTGCTTTAGCGGAGTCACCTAGTGCAG,8040 fluorescence intensity (a.u.)
18,ACACTCGCTCTCGCCTTGACCAAAGCCCACATCGCGCAGGCGGAGTCACCTAGTGCAG,9020 fluorescence intensity (a.u.)
19,TCCCGTTCAGTCAAGTGTCCACCCAGTTCTTGCATGACGGCGGAGTCACCTAGTGCAG,8980 fluorescence intensity (a.u.)
20,TCTTCGCTTTCTCCGCCTCCTCGTCCCGCTCGGGCGACGTCGGAGTCACCTAGTGCAG,9280 fluorescence intensity (a.u.)
21,ATATCGTCGCTTCCGCTTCTCTCCCTCTCTCGCCCCGCTCCGGAGTCACCTAGTGCAG,13300 fluorescence intensity (a.u.)

row,Sequence,binding signal
1,CTCCGAGATTGATCTTGCCCGCTCTCATGTGCGAAAGCTTCGGAGTCACCTAGTGCAG,8340 fluorescence intensity (a.u.)
2,ATATTTAAAAAAGTCAACGGCGTCAAACATTTTGAAACGGCGGAGTCACCTAGTGCAG,16800 fluorescence intensity (a.u.)
3,GCTACTAAGGAGTACTACAATATTGCATCATCGTCATCATCGGAGTCACCTAGTGCAG,9960 fluorescence intensity (a.u.)
4,GGTGGAATACTTAAAATTGTATTCTTTGCTACTTACCTCACGGAGTCACCTAGTGCAG,8470 fluorescence intensity (a.u.)
5,GATAGAGGAGAGGGTGGGCGCGCAACAGCAATAAGCATTACGGAGTCACCTAGTGCAG,9420 fluorescence intensity (a.u.)
6,TTGCACCAGTGCCACTGCCACCTAGCTCACCCTGTCATTTCGGAGTCACCTAGTGCAG,8260 fluorescence intensity (a.u.)
7,ACGACGCGCCATACCTGCCTGCCCCTGCCGCCTCCATCACCGGAGTCACCTAGTGCAG,9760 fluorescence intensity (a.u.)
8,GTTCGTCTCGCCCCAGTTCATCCTCCACCATCCACATATGCGGAGTCACCTAGTGCAG,8030 fluorescence intensity (a.u.)
9,TCATGCCCTGTTCCTTTTTTCTTTTCAATGTCTCATTCAACGGAGTCACCTAGTGCAG,10800 fluorescence intensity (a.u.)
10,AGAGGGGAGGGAGGAGGATTATGGTTTTTTTTCTCTAAAACGGAGTCACCTAGTGCAG,16700 fluorescence intensity (a.u.)
11,TTATCTATTTTTTTGACTTACTTTACTATCCAAAGTACTTCGGAGTCACCTAGTGCAG,9030 fluorescence intensity (a.u.)
12,ATCTTGATATTGACGAAGTCATCACATGCGCATCGTTGCCCGGAGTCACCTAGTGCAG,8160 fluorescence intensity (a.u.)
13,GCACAAATCCACTACCCCACCACTCCCTTTCTCTTTCTCACGGAGTCACCTAGTGCAG,10300 fluorescence intensity (a.u.)
14,AAATGTGGAATGGTTGGCCTGGGTTGGCTTGGGACGAGCTCGGAGTCACCTAGTGCAG,17000 fluorescence intensity (a.u.)
15,TTGGGCTATTCCTCGACTCTAGGTTGGGTGAGAGACTTGTCGGAGTCACCTAGTGCAG,8250 fluorescence intensity (a.u.)
16,GTAGGATATGATGCACAATTCGCTTCCCAGTCACCTTCCACGGAGTCACCTAGTGCAG,9040 fluorescence intensity (a.u.)
17,CTGCCGCCTTGCTGCCAGCCCTCCGCTCTGGCCTCCGCCGCGGAGTCACCTAGTGCAG,8450 fluorescence intensity (a.u.)
18,GATTATCTGCGCAAATACTGTTACCGTATTAACACACATTCGGAGTCACCTAGTGCAG,8240 fluorescence intensity (a.u.)
19,ATGACGTCATTTGGTTGGTCTAGAACATTCGTTCCGTCCTCGGAGTCACCTAGTGCAG,8880 fluorescence intensity (a.u.)
20,TATTTACACGCTTTTCAAACTATTAAATGATATGTTTTTTCGGAGTCACCTAGTGCAG,9560 fluorescence intensity (a.u.)
21,CTCAGCTCACACACTTCGTCTCCACTATACTACCTAGCTACGGAGTCACCTAGTGCAG,8360 fluorescence intensity (a.u.)

# Quoted at random: three records from the list, in no set order.
row,Sequence,binding signal
11,CTGATTCGTGGGAGGTGGTGGTGTCTGATTCGTGGGAGGCCGGAGTCACCTAGTGCAG,9890 fluorescence intensity (a.u.)
14,CTCCATCACCCTCGTCCTCACCGACGGGCCCTACAAGGGGCGGAGTCACCTAGTGCAG,9610 fluorescence intensity (a.u.)
16,GTAGGATATGATGCACAATTCGCTTCCCAGTCACCTTCCACGGAGTCACCTAGTGCAG,9040 fluorescence intensity (a.u.)
